## Library screen at single concentrations

Amino acid sequences for entries named in this document (tags omitted). Residues count along the entry.
UniProt A4I591, 1-473: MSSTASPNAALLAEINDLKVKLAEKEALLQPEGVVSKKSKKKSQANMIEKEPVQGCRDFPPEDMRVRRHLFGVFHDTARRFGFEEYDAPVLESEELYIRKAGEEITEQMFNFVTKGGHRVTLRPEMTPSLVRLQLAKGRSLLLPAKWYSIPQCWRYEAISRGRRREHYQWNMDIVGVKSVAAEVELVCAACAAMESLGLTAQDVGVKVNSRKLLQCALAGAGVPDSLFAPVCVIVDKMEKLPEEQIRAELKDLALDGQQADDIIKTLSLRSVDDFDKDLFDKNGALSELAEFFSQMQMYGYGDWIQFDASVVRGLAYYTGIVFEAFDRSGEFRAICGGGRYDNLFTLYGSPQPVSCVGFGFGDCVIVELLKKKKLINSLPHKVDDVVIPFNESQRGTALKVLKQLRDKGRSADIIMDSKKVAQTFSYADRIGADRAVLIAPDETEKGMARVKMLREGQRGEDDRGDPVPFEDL
UniProt I6X8D2, whole entry: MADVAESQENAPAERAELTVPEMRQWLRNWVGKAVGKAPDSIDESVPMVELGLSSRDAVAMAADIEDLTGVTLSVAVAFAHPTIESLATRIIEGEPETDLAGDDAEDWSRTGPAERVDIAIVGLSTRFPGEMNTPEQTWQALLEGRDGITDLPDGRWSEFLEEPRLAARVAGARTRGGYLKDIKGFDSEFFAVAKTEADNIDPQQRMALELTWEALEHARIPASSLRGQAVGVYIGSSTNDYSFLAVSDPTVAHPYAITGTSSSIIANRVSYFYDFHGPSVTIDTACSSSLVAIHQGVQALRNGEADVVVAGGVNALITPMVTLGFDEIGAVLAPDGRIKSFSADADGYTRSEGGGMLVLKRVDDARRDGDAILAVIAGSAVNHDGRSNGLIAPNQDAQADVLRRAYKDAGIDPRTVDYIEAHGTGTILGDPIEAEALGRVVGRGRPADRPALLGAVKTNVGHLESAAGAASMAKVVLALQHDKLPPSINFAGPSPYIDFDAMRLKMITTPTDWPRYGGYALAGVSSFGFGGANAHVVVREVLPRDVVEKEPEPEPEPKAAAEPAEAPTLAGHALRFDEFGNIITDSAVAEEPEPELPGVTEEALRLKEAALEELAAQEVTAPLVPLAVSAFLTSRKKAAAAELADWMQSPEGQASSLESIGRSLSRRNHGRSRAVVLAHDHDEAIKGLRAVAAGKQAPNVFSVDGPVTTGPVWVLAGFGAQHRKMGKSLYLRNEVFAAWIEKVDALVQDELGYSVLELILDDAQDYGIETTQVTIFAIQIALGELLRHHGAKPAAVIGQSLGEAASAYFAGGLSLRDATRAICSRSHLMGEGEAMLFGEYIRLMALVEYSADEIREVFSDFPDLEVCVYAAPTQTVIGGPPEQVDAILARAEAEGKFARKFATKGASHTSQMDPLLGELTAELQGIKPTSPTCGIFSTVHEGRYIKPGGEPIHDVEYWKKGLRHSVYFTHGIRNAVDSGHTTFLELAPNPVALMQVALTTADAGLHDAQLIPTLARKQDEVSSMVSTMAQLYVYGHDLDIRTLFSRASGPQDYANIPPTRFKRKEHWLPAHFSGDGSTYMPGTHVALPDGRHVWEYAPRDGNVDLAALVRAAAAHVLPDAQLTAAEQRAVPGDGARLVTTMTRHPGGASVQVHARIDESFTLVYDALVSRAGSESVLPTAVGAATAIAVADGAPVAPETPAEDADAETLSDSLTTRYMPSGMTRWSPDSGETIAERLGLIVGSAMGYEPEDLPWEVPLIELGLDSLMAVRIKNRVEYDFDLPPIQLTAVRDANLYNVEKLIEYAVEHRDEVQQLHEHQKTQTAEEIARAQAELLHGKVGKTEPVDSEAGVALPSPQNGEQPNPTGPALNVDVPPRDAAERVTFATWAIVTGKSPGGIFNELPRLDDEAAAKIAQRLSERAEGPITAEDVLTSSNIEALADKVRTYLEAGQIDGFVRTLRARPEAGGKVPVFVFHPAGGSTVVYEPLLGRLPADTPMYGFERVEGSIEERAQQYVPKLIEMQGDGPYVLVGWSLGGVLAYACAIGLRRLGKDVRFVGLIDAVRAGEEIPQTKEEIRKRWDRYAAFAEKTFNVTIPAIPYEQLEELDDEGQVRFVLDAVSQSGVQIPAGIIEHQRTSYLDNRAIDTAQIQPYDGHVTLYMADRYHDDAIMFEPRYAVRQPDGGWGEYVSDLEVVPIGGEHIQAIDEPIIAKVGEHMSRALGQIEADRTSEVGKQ
UniProt P9WFT3, whole entry: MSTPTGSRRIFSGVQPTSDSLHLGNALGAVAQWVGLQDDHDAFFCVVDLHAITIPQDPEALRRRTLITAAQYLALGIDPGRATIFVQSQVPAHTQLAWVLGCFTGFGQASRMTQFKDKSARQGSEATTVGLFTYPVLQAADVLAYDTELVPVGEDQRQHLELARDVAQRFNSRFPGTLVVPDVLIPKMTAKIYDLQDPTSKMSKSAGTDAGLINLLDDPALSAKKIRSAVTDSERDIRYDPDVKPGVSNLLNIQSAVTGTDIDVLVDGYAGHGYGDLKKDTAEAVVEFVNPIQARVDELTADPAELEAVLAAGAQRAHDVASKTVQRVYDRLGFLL
UniProt Q4DA54, 1-478: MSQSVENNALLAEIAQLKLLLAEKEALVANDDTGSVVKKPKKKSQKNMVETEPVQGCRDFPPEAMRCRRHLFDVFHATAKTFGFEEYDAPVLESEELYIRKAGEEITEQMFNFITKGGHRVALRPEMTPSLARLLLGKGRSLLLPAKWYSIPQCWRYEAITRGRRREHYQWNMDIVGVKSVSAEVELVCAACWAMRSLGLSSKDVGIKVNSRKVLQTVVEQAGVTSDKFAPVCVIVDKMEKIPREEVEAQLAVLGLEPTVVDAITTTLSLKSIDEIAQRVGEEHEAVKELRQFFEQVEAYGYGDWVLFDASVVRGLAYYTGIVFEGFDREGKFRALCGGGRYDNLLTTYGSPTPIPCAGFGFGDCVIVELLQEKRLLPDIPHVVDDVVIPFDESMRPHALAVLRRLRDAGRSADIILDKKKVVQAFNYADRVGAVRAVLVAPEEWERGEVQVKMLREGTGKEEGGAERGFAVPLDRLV

From ChEMBL document CHEMBL3988442, “University of Dundee, Small-Polar-MMV Screening Library” (2021).

A: 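Enzyme assay of histidyl-tRNA synthetase; the read-out is not stated. Target: Histidine-tRNA ligase, Leishmania infantum (UniProt A4I591). Concentration: 30 µM. Higher reads as stronger inhibition (inferred: compounds with an IC50 in retests scored well above the rest). The assay is labelled LdHisRS but filed under L. infantum. Size under these conditions: about 69,000 compounds, about 410 of them at 50% or above in at least one test.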
B: 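Polyketide synthase Pks13, Mycobacterium tuberculosis (UniProt I6X8D2). Enzyme assay of the thioesterase domain of polyketide synthase 13; the read-out is not stated. Concentration: 30 µM. Higher reads as stronger inhibition (inferred from which compounds were picked for retests). Size under these conditions: about 67,000 compounds, about 300 of them at 50% or above in at least one test.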
C: 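Enzyme assay of tryptophanyl-tRNA synthetase; the read-out is not stated. Target: Tryptophan-tRNA ligase, Mycobacterium tuberculosis (UniProt P9WFT3). Compounds at 10 µM. Higher most likely means stronger inhibition; the record gives no direction and few retests gave an IC50. Size under these conditions: about 65,000 compounds, about 64 of them at 50% or above in at least one test.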
D: 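Enzyme assay of histidyl-tRNA synthetase; the read-out is not stated. Target: Histidine-tRNA ligase, Trypanosoma cruzi CL Brener (UniProt Q4DA54). Concentration: 30 µM. The record gives no direction; compounds that gave an IC50 in retests scored well above the rest, so higher reads as stronger inhibition. About 69,000 compounds were tested under these conditions; 0.045% (about 31) showed 50% or more at least once.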

Results are given as percent effect. The record does not define 0% and 100%; most values in the screen are far below 50% and negative numbers occur (in some assays of this library far below -100). Compounds were drawn at random from those tested, without regard to their results. A dash means the value is not listed here; it may have been measured.

SMILES,A,B,C,D
Cc1cc(C)n(C2CN(c3ncnc4[nH]ccc34)C2)n1,6.25%,-34.24%,-9.185%,7.182%
CC(c1nc(C2CC2)no1)N1CCN(CC(=O)N2CCOCC2)CC1 (stereo unspecified),11.24%,0.9838%,2.788%,7.538%
Cc1ccc(C(=O)N2C[C@H](OCC3CCOCC3)[C@H]3OCCC[C@H]32)o1,-0.885%,-1.424%,1.591%,8.8%
Cn1cccc1C(=O)COc1ccc(S(N)(=O)=O)cc1,11.7%,-3.483%,-7.097%,5.051%
CCCN1C[C@H](NC(=O)c2ccccc2F)[C@@H](c2ccc(OC)cc2)C1,7.368%,-6.623%,-4.464%,5.224%
CCn1cnnc1CNC(=O)N1CCC(OCc2ccccc2)CC1,15.04%,-25.37%,-1.881%,9.038%
COc1cccc(NC(=O)Cn2c(=O)nc(N)c3cc(C)sc32)c1,22.83%,-6.522%,2.488%,3.96%
Cc1ccc(OCCC(=O)N2CCN(c3cnccn3)CC2)cc1C,-6.25%,20.84%,-1.981%,5.703%
c1cc(CN2CCC3(CC2)COC(COCC2CC2)C3)cs1 (stereo unspecified),15.38%,-27.65%,2.18%,8.738%
CC(=O)N1CCC2(CC1)C(=O)N(C)c1ccc(F)cc12,12%,-7.895%,-5.151%,2.062%
Cc1noc(C)c1C(=O)NCc1ccnc(OCC(F)(F)F)c1,36%,-5.001%,-5.031%,1.901%
CCN(CC)S(=O)(=O)N1CCCC1C(=O)N1CCSCC1 (stereo unspecified),16.67%,-19.97%,1.867%,12.94%
Cc1ccc(NC2CCN(C(=O)CC3CCCO3)CC2)nn1 (stereo unspecified),-9.524%,-11.49%,2.582%,0.7519%
CCCN(C)C(=O)c1cc(Br)cc(S(=O)(=O)N2CCOCC2)c1F,20%,-29.66%,-2.786%,1.299%
CC(C)c1noc(CCNC(=O)NCC2Cc3ccccc3O2)n1 (stereo unspecified),11.7%,-9.884%,5.548%,7.071%
CCN1CCN(S(=O)(=O)c2ncn(C)c2Cl)CC1,18.27%,-8.285%,-6.445%,4.065%
OCc1ccc(CN(CCCn2ccnc2)Cc2ccncc2)o1,9.783%,-2.157%,1.4%,0%
CCc1nc(CS(=O)(=O)Cc2noc(C3CC3)n2)cs1,-12.86%,-23.3%,-1.805%,6.383%
c1cncc(CN2CC[C@@H]3O[C@H](COCCN4CCCC4)CC[C@@H]32)c1,15.96%,-2.351%,2.061%,3.015%
COCC(C)NC(=O)c1cncc(Br)c1 (stereo unspecified),19.18%,-19.79%,-0.8922%,5.946%
Cc1nsc(NC(=O)NC2CCOCC2)n1,10.32%,-38.32%,1.27%,11.76%
CC(c1nnc(-c2ccccc2)o1)N1CCc2cncnc2C1 (stereo unspecified),4.167%,-24.29%,-2.786%,12.71%
CC(c1ccc(S(N)(=O)=O)cc1)N(C)C(=O)c1ccccc1I (stereo unspecified),12.86%,-14.02%,-4.332%,4.255%
COc1ccccc1CN1CCC(c2nn(CCN)c3nccnc23)C1 (stereo unspecified),28%,-27.96%,-,37.45%
CN(C)C(=O)[C@@H]1C[C@@H]2CCN(Cc3ccncc3)C[C@@H]2O1,14.55%,-13%,-4.01%,9.091%
CCN(CC)c1ccc(NC(=O)NCC2CCOC2)cn1 (stereo unspecified),11.67%,-16.91%,3.398%,2.941%
CS(=O)(=O)N1C[C@@H]2CC[C@H](C1)N(CCC(=O)NCc1ccco1)C2,13.56%,-13.38%,-1.341%,9.268%
CCO[C@H]1C[C@@H](O)C12CCN(C1CCN(c3ccccc3C)CC1)CC2,10.2%,-6.762%,-1.755%,-1.026%
CC1=N[C@@]2(CC[C@@H]3CN(S(C)(=O)=O)C[C@@H]32)C(=O)N1CC(C)C,8.824%,75.87%,-5.185%,1.97%
COc1ccc(C[C@H]2CN(Cc3ccoc3)CC[C@H]2OC)cc1,7.692%,-7.007%,-,10.61%
O=C(C1CN(CC2CC2)CC12CCOCC2)N1CCCC1 (stereo unspecified),20%,3.248%,17.38%,-2.299%
CC1CCN(C)c2ccccc2N1C(=O)c1ccc(=O)n(C)n1 (stereo unspecified),14.17%,-13.84%,-0.4128%,5.263%
c1cnc(Nc2ccc(C3CCCCN3Cc3ccncc3)cn2)nc1 (stereo unspecified),19.58%,2.167%,0.1958%,2.26%
CNC(=O)C1Cn2ccnc2C2(CCN(Cc3nccs3)CC2)O1 (stereo unspecified),8%,-41.27%,11.1%,0%
CNS(=O)(=O)c1cccc(CNc2ncccn2)c1,0.8772%,-0.6737%,-6.073%,0.2907%
c1cnc(N2CCCC3(CCN(Cc4cccs4)C3)C2)nc1 (stereo unspecified),22.94%,-21.38%,-1.99%,6.25%

Repeated from the top, 3 entries:

- Cc1cc(C)n(C2CN(c3ncnc4[nH]ccc34)C2)n1 : A: 6.25%; B: -34.24%; C: -9.185%; D: 7.182%
- CC(c1nc(C2CC2)no1)N1CCN(CC(=O)N2CCOCC2)CC1 (stereo unspecified) : A: 11.24%; B: 0.9838%; C: 2.788%; D: 7.538%
- Cc1ccc(C(=O)N2C[C@H](OCC3CCOCC3)[C@H]3OCCC[C@H]32)o1 : A: -0.885%; B: -1.424%; C: 1.591%; D: 8.8%